# Measured values: the supplement of paper PMC6143611
# Where a name gives a salt, the structure may show the parent alone. ± gives the uncertainty stated by the source. Some of the results follow. Plates or batches differ in their baseline, so values are only roughly comparable.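 At 6 dpf, larvae had a heat-shock-induced fluorescent stripe placed in rod outer segments; shedding distance, from stripe to outer segment tip, was measured in confocal stacks, roughly three fish per compound. Controls received 0.2% DMSO vehicle; compounds were flagged for ≥20% change versus same-week control and p < 0.001 (Dunnett test, mixed-effects models).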
# Tested on: Danio rerio larva rod photoreceptor outer segment
# Experiment: rod outer segment shedding distance Ds, difference from same-week DMSO control mean; higher = less outer segment shedding
# Conditions: 20 µM; treatment time: 4 days (6-10 dpf)
row,SMILES,rod outer segment shedding distance Ds [um]
1,OCCn1cc(-c2cnc3nnn(Cc4ccc5ncccc5c4)c3n2)cn1,0.1 ± 0.21
2,CC(=O)N1CCN(CCOc2ccc(C3CCN(C4=Nn5c(nnc5C(F)(F)F)CC4)CC3)cc2)CC1,-0.2 ± 0.13
3,CC1(C)O[C@@H]2C[C@H]3[C@@H]4CCC5=CC(=O)C=C[C@]5(C)[C@H]4[C@@H](O)C[C@]3(C)[C@]2(C(=O)CO)O1 [Desonide],-0.15 ± 0.14
4,CN(Cc1cnc2nc(N)nc(N)c2n1)c1ccc(C(=O)N[C@@H](CCC(=O)O)C(=O)O)cc1 [Methotrexate],-0.71 ± 0.25
5,COc1c(C)c2c(c(O)c1C/C=C(\C)CCC(=O)OCCN1CCOCC1)C(=O)OC2 [Mycophenolate Mofetil],0.41 ± 0.21
6,CC1=C(CC(=O)O)c2cc(F)ccc2/C1=C\c1ccc([S+](C)[O-])cc1 (stereo not drawn) [Sulindac],-1.28 ± 0.28
7,O=c1ccn([C@@H]2O[C@H](CO)[C@@H](O)[C@H]2O)c(=O)[nH]1 [Uridine],-0.89 ± 0.27
8,CC[C@H]1OC(=O)[C@H](C)[C@@H](O[C@H]2C[C@@](C)(OC)[C@@H](O)[C@H](C)O2)[C@H](C)[C@@H](O[C@@H]2O[C@H](C)C[C@H](N(C)C)[C@H]2O)[C@](C)(OC)C[C@@H](C)C(=O)[C@H](C)[C@@H](O)[C@]1(C)O [Clarithromycin],0.09 ± 0.13
9,NC(=O)c1ccc(I)c([N+](=O)[O-])c1 [Iniparib (BSI-201)],-0.46 ± 0.28
10,CCN1CCN(C(=O)N[C@@H](C(=O)N[C@@H]2C(=O)N3C(C(=O)O)=C(CSc4nnnn4C)CS[C@H]23)c2ccc(O)cc2)C(=O)C1=O [Cefoperazone],0.3 ± 0.16
11,O=C(Nc1cccc(Cl)c1)Nc1ncc(CCNc2ncnc3ccsc23)s1 [SNS-314 Mesylate],-0.27 ± 0.17
12,CN(C/C=C/C#CC(C)(C)C)Cc1cccc2ccccc12 [Terbinafine HCl],-1.32 ± 0.39
13,COc1ccccc1S(=O)(=O)Nc1ccc2c(c1)CN(C)C(=O)N2,-0.44 ± 0.22
14,COc1cc(OC)c(C(=O)CCCN2CCCC2)c(OC)c1 [Buflomedil HCl],-0.31 ± 0.14
15,Cc1nc2n(c(=O)c1CCN1CCC(c3noc4cc(F)ccc34)CC1)CCCC2 [Risperidone],-0.3 ± 0.17
16,OCc1ccccc1O[C@@H]1O[C@H](CO)[C@@H](O)[C@H](O)[C@H]1O [Salicin],1.1 ± 0.25
17,CCC[S+]([O-])c1ccc2[nH]c(NC(=O)OC)nc2c1 (stereo not drawn) [Albendazole Oxide],-0.55 ± 0.27

# Two entries from above, with bars between the fields.
row | SMILES | rod outer segment shedding distance Ds [um]
3 | CC1(C)O[C@@H]2C[C@H]3[C@@H]4CCC5=CC(=O)C=C[C@]5(C)[C@H]4[C@@H](O)C[C@]3(C)[C@]2(C(=O)CO)O1 [Desonide] | -0.15 ± 0.14
4 | CN(Cc1cnc2nc(N)nc(N)c2n1)c1ccc(C(=O)N[C@@H](CCC(=O)O)C(=O)O)cc1 [Methotrexate] | -0.71 ± 0.25

# Next part.

row,SMILES,rod outer segment shedding distance Ds [um]
1,CN(C)CCN1C(=O)c2cccc3cc(N)cc(c23)C1=O [Amonafide],-0.12 ± 0.26
2,NC(=O)c1ncn([C@@H]2O[C@H](CO)[C@@H](O)[C@H]2O)c1N [Acadesine],-0.2 ± 0.14
3,CN1CCN(c2nc(C3=C(c4c[nH]c5ccccc45)C(=O)NC3=O)c3ccccc3n2)CC1 [Sotrastaurin],-0.21 ± 0.14
4,CCCCCCCCCCCCCCCC(=O)O[C@@H]1[C@@H](O)[C@@H](O)[C@@H]([C@H](NC(=O)[C@@H]2C[C@@H](CCC)CN2C)[C@H](C)Cl)O[C@@H]1SC [Clindamycin palmitate HCl],-0.12 ± 0.15
5,Nc1nc(Cl)nc2c1ncn2[C@H]1C[C@H](O)[C@@H](CO)O1 [Cladribine],-2 ± 0.23
6,CC1(C)[C@H](C(=O)O)N2C(=O)C[C@H]2S1(=O)=O [Sulbactam],-0.97 ± 0.27
7,C[C@@H]1O[C@@H](OC[C@H]2O[C@@H](Oc3c(-c4ccc(O)c(O)c4)oc4cc(O)cc(O)c4c3=O)[C@H](O)[C@@H](O)[C@@H]2O)[C@H](O)[C@H](O)[C@H]1O [Rutin],0.58 ± 0.26
8,C=C[C@H]1CN2CC[C@H]1C[C@H]2[C@H](O)c1ccnc2ccc(OC)cc12 [Quinine HCl Dihydrate],0.73 ± 0.3
9,CO[C@H]1C[C@@H]2CC[C@@H](C)[C@@](O)(O2)C(=O)C(=O)N2CCCC[C@H]2C(=O)O[C@H]([C@H](C)C[C@@H]2CC[C@@H](OC(=O)C(C)(CO)CO)[C@H](OC)C2)CC(=O)[C@H](C)/C=C(\C)[C@@H](O)[C@@H](OC)C(=O)[C@H](C)C[C@H](C)/C=C/C=C/C=C/1C,-1.39 ± 0.2
10,Oc1nc(-c2ccc(C(F)(F)F)cc2)nc2c1CSCC2,0.7 ± 0.15
11,Cc1onc(-c2ccccc2Cl)c1C(=O)N[C@@H]1C(=O)N2[C@@H]1SC(C)(C)[C@@H]2C(=O)O [Cloxacillin Sodium],-0.77 ± 0.15
12,O=C(O)/C=C/c1ccc(O)c(O)c1 [Caffeic Acid],-0.12 ± 0.4
13,COc1c(N2C[C@@H]3CCCN[C@@H]3C2)c(F)cc2c(=O)c(C(=O)O)cn(C3CC3)c12 [Moxifloxacin HCl],-0.58 ± 0.15
14,NC(=O)c1cccc(-c2cccc(OC(=O)NC3CCCCC3)c2)c1,-0.83 ± 0.12
15,CC1(COc2ccc3c(c2)ncn3-c2ccc3cccc(N4CCC(N)CC4)c3n2)COC1,-0.67 ± 0.11
16,COc1cc(NS(=O)(=O)c2ccc(N)cc2)nc(OC)n1 [Sulphadimethoxine],0.19 ± 0.26
